In PMC12604968, “Mutant NPM1 modulates PDCD4 ubiquitination degradation and facilitates leukemogenesis” (iScience, 2025):
These are yes or no findings as the source states them, for the method shown. In cells and extracts the contact can be indirect. A yes stands for co-enrichment or nearness to the bait. Other partners may have been found. Sequences can lack the tags named with a protein.

Sequences of proteins named here, by UniProt entry; tags and fusion partners are left off.
UniProt P06748: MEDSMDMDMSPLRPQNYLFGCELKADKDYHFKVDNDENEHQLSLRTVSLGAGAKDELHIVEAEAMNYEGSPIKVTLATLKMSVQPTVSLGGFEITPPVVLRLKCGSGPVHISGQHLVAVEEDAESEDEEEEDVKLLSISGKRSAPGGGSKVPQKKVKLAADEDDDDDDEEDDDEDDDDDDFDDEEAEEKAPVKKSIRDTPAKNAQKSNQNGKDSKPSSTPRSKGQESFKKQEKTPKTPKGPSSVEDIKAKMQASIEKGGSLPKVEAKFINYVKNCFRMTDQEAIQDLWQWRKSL
UniProt Q09028: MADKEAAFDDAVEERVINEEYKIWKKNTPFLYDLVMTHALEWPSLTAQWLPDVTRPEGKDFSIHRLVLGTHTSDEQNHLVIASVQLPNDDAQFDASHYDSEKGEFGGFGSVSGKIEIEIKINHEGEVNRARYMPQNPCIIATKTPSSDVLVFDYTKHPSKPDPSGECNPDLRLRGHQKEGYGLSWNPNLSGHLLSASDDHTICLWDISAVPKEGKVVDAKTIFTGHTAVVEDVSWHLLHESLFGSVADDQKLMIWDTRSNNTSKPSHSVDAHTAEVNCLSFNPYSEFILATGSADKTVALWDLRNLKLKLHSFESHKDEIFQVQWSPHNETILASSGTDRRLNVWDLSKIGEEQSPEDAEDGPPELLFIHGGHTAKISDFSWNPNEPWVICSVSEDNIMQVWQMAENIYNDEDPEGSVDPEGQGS

Target: T1, GST-PDCD4 recombinant protein (human, UniProt Q53EL6 1-469)
T1 construct: PDCD4 (programmed cell death 4), human, amplified from cDNA of HEK293T cells and cloned into pGEX-6P-1; pGEX-6P-1 is known to add GST at the N-terminus; also called GST-tagged PDCD4; source: E. coli BL21 (DE3), purified (Glutathione Sepharose 4FF)
T1 sequence (looked up): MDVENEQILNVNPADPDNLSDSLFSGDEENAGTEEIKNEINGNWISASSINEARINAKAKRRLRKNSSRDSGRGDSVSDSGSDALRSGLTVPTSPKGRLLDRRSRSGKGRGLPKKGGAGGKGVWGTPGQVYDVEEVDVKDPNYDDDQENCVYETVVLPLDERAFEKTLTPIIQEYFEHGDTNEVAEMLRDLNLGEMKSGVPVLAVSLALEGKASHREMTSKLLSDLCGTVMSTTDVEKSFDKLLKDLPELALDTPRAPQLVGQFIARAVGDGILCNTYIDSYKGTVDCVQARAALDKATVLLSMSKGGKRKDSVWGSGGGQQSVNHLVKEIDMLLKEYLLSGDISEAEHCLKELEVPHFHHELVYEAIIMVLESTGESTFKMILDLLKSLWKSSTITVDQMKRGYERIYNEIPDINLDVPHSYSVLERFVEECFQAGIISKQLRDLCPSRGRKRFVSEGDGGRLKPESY
Experiment: affinity purification with mass spectrometry; GST-PDCD4 (and GST) immobilised on glutathione Sepharose beads, incubated with cell lysate; SDS-PAGE, mass spectrometry; only the target purified

| Substance | binding |
| --- | --- |
| NPM1 (Nucleophosmin 1), endogenous (from UniProt P06748 1-294) | binds |
| RBBP4, endogenous (from UniProt Q09028 1-425) | binds |
